Experimental data as given in PubChem BioAssay AID504648 (National Center for Advancing Translational Sciences (NCATS), 2011).
The whole screen tested about 390,000 compounds, of which about 610 (0.16%) were called active. Inconclusive means that the source gave no clear call. Such entries were picked first, then a sample of the others. Calls come from the whole dose curve; as a rule, active = well fitted inhibition curve with a large enough effect; inconclusive = small, poorly fitted or top-dose-only effect, or effect the other way, or another doubt; inactive = no such curve, though single readings can be large or run the other way. Potencies of inconclusive entries are doubtful fits and often do not repeat.

Test: Nrf2 qHTS screen for inhibitors: counterscreen for cytotoxicity
Conditions: A549 ARE-Fluc cells, CellTiter-Fluor viability, 18-24 h; series mostly up to 46 µM
Outline: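 A549 ARE-Fluc cells in 5% FBS OPTI-MEM, 5000 cells/well, rested 2 h then exposed to compounds in concentration-response for 18-24 h at 37 °C. Viability by CellTiter-Fluor fluorescence (Ex 405/Em 525) after 30 min; luciferase luminescence (BugLite, 15 min, RT) read afterwards.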
Potency is the fitted concentration of half-maximal effect.

**Q.** For CCOC(=O)c1c(S(=O)(=O)N2CCCC(C(=O)N3CCN(c4ccc(F)cc4)CC3)C2)c(C)n(C)c1C (stereo not given), which Potency is on record?
**A.** Its Potency is “inactive”.

**Q.** With O=C(NC(=S)N1CCN(c2nc(-c3ccccc3)cs2)CC1)c1cncc(Br)c1 as the compound, how does the Potency read?
**A.** The Potency was “inactive”.

**Q.** Which Potency does the source give for CCc1ccc(NC(=O)C(=O)N/N=C(\C)CC(=O)Nc2ccc(OC)cc2)cc1 here?
**A.** Its Potency is inconclusive: 16.4 µM [activator, partial curve].

**Q.** Which Potency does the source give for COc1ccc(N2CCN(C(=O)CN(c3cccc(Br)c3)S(C)(=O)=O)CC2)cc1 here?
**A.** The Potency was “inactive”.

**Q.** For CCCN1CCn2c3c(c4cc(Br)ccc42)CCCC31 (stereo not given), which Potency is on record?
**A.** Its Potency is inconclusive: 29.1 µM [activator, single point].

**Q.** Which Potency does the source give for CN(Cc1ccccc1)c1ccc([N+](=O)[O-])cc1C(=O)O here?
**A.** The Potency was inconclusive: 32.6 µM [falling, partial curve, poor fit].

**Q.** For N#C/C(=C\c1cn(CC(=O)N2CCCCC2)c2ccccc12)C(=O)NCc1ccc2c(c1)OCO2, which Potency is on record?
**A.** Its Potency is inconclusive: 18.4 µM [falling, partial curve, poor fit].

**Q.** Which Potency does the source give for Cc1csc2ncc(C(=O)Nc3ccc(C(F)(F)F)cc3)c(=O)n12 here?
**A.** The Potency was inconclusive: 0.0058 µM [activator, full curve, poor fit].

**Q.** Which Potency does the source give for CCN(CC)c1ccc(/C=N/Nc2nc(C)cc(C)n2)c(O)c1 here?
**A.** The Potency was inconclusive: 29.1 µM [falling, single point].

**Q.** With O=C(Nc1ccc(F)cc1)c1oc2ccccc2c1NC(=O)C1CCCC1 as the compound, how does the Potency read?
**A.** The Potency was inconclusive: 23.1 µM [activator, partial curve, poor fit].

**Q.** For Cc1ccc(C)n1-c1sccc1C(=O)O, which Potency is on record?
**A.** Its Potency is inconclusive: 23.1 µM [falling, partial curve, poor fit].

**Q.** Which Potency does the source give for Cc1ccc(CC2C(=O)N(CC(=O)O)C(=O)C2C)cc1 (stereo not given) here?
**A.** Its Potency is “inactive”.

**Q.** With N#Cc1cc2ccccc2nc1SCC(=O)Nc1ccccc1N1CCOCC1 as the compound, how does the Potency read?
**A.** Its Potency is inconclusive: 5.17 µM [activator, partial curve, poor fit].

**Q.** Which Potency does the source give for CSc1nc(-c2ccc(F)cc2)cc(=O)[nH]1 here?
**A.** Its Potency is “inactive”.

**Q.** With CCCCCCn1c(N2CCN(c3ccccc3)CC2)nc2c1c(=O)[nH]c(=O)n2C as the compound, how does the Potency read?
**A.** Its Potency is inconclusive: 18.4 µM [falling, partial curve].

**Q.** For Cc1ccc(-n2c3nc(=O)n(C)c(=O)c-3cc3ccccc32)cc1, which Potency is on record?
**A.** The Potency was “inactive”.

**Q.** For O=S(=O)(/C=C/c1ccccc1)N1CCN(c2ccc(F)cc2)CC1, which Potency is on record?
**A.** Its Potency is “inactive”.

**Q.** With Cc1cccc(Nc2nc(NCCCN3CCOCC3)nc(N)c2[N+](=O)[O-])c1 as the compound, how does the Potency read?
**A.** Its Potency is “inactive”.

**Q.** Which Potency does the source give for S=C(N=Nc1ccccc1)NNc1ccccc1 here?
**A.** Its Potency is inconclusive: 18.4 µM [falling, partial curve, poor fit].

**Q.** For O=C(CCl)NC(=O)NC12CC3CC(CC(C3)C1)C2, which Potency is on record?
**A.** Its Potency is “inactive”.
